Data as given in patent US12649783B2, “Anti-MCT1 antibodies and uses thereof” (IMMUNEXT INC., priority 2018, dated 2026).
Some results were stated once for a whole list of compounds, not compound by compound.

System: Tr1 cells
Test: ex vivo Tr1 survival
Assay type: cell-based, human
Conditions: dose-dependent
Experimental: Humanized NSG mice (treated with anti-MCT1) were sacrificed on d32 or other day specified, single cells suspensions were prepared from spleens, followed by bead-based enrichment of hCD3+ cells. Isolated cells were plated with the analytes (see above table) to access Tr1 survival: […]

With “IL-15: Recombinant Human IL-15 (carrier-free), Biolegend 570304” as the substance, how does the “rate of ex vivo Tr1 cell survival” value read?
Its value is “up to 75%”.
